Patent publication US6767718B2 (BioSource Pharm, Inc., priority 2002, dated 2004)

Experiment: general procedure: peptide synthesis; DCC/HOBT; TOTU/DIEA; diisopropylcarbodiimide/HOBT; alkyl isocyanates
Conditions: 215 nm area %
[1] = late stage modification step, cyclic, sequence written open
[2] = late stage modification step, cyclic

CH3(CH2)8CO-L-1-Naph-Asn-Asp-cdpeptide
final HPLC purity [1]: 70%

CH3(CH2)8CO-D-Phe-Asn-Asp-cdpeptide [6]
final HPLC purity [2]: 100%

CH3(CH2)11NHCO-Asn-Asp-FMOC-cdpeptide
final HPLC purity (lipidation step): 90%

CH3(CH2)8CO-L-Bthio-Asn-Asp-cdpeptide
final HPLC purity [1]: 67%

CH3(CH2)8CO-D-Kyn-Asn-Asp-cdpeptide [Example 10]
final HPLC purity [2]: 100%

CH3(CH2)8CO-L-Kyn-Asn-Asp-cdpeptide [9]
final HPLC purity (purification step, cyclic): 96%

CH3(CH2)11NHCO-Asn-Asp-cdpeptide
final HPLC purity [1]: 86%

CH3(CH2)8CO-L-2-Naph-Asn-Asp-cdpeptide
final HPLC purity [1]: about 86%

CH3(CH2)8CO-L-Phe-Asn-Asp-cdpeptide [5]
final HPLC purity [2]: 100%

CH3(CH2)8CO-D-Kyn-Asn-Asp-cdpeptide [10]
final HPLC purity (purification step, cyclic): 95%

CH3(CH2)15NHCO-Asn-Asp-cdpeptide
final HPLC purity [1]: 93%

CH3(CH2)9SO2-L-Phe-Asn-Asp-FMOC-cdpeptide
final HPLC purity (lipidation step): 100%

CH3(CH2)11NHCO-L-2-Naph-Asn-Asp-cdpeptide
final HPLC purity [1]: 88%
